These results are taken from article PMC5996148.

Sequences of proteins named here, by UniProt entry; tags and fusion partners are left off.
UniProt Q9H7M9, whole entry: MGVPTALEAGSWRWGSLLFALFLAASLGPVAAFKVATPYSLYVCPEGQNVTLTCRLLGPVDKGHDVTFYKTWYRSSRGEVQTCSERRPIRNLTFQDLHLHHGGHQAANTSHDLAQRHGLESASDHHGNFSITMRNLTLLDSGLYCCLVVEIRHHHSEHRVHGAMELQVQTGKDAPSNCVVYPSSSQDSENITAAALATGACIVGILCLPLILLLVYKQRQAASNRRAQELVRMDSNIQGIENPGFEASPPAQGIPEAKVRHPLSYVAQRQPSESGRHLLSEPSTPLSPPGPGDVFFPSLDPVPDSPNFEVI

The other results are listed elsewhere or left out. For some of these results: The source does not settle which construct or isoform was used.

Among the test systems are C10orf116 (human); C10orf26 (human); C10orf35 (human); C10orf46 (human); C10orf49 (human).
Common to all, as to assay: protein microarray (ProtoArray v5.0), streptavidin-Alexa Fluor 647
Settings in all cases: 3'-biotin; 20 mM Tris (pH 7.5), 5 mM MgCl2, 100 mM KCl, 0.1% Tween-20, A/T-rich and random oligonucleotide blockers; temperature not stated; high values mean tight binding

Test [1] concerns C-terminal-binding protein 1 (human).
Test [2] concerns C-type lectin domain family 12 member A (human).
Test [3] concerns C-type lectin domain family 2 member D (human).
A further test concerns the target C10orf54 (UniProt Q9H7M9).
In another test the target is T1, C10orf58 (UniProt Q9BRX8).
T1 sequence: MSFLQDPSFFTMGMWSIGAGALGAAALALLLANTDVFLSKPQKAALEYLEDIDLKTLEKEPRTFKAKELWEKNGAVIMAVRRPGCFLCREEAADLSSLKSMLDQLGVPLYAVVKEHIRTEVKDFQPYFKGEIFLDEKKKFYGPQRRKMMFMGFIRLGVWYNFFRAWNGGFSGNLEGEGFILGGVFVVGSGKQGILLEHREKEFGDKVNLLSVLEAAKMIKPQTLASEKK

Turning to “GGGAGGCTGAGGCAGG [G4-1 biotinylated (PQS2)]”, the binding signal in [1] was -0.356 z-score; in test [2] it was -0.36 z-score; in [3], -0.321 z-score; in the test with C10orf116 (human), -0.277 z-score; in the test on C10orf26 (human), -0.351 z-score; with C10orf35 (human), -0.331 z-score. The binding signal is -0.329 z-score with C10orf46 (human), -0.273 z-score in the test on C10orf49 (human), -0.303 z-score in the test with C10orf54 and -0.332 z-score with C10orf58.
